Experimental findings from PMC12406269 are described below.

Chains of the proteins cited; added tags and fusions are not shown. Residues count along the entry.
UniProt P05161, residues 1-157: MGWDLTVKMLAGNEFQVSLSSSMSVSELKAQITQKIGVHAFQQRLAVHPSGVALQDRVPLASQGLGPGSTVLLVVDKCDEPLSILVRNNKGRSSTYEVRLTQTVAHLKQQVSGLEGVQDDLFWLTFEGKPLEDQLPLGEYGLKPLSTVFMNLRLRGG
UniProt Q64339, residues 1-155: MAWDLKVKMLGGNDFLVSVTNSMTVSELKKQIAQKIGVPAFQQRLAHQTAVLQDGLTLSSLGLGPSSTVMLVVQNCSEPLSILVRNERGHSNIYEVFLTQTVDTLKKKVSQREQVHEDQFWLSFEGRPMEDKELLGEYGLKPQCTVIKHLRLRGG

The target in assay [1] is human ISG15 (1-157)-SBP-His (human) (UniProt P05161). The assay can be described thus: condition: only ISG15 denatured (reducing SDS-PAGE, immunoblot); 1 μg/ml VHH; far-Western, overlay or dot blot; immunoblot: recombinant proteins resolved by reducing SDS-PAGE on nitrocellulose, probed with 1 μg/ml HA-tagged VHH, detected with anti-HA HRP; both purified.
In assay [2] the target is His-mISG15 (mouse) (UniProt Q64339). Briefly: SEC; VHH and ISG15 mixed at the indicated molar ratios (1:2, 1:1 or 1:1:1) at 20 μM in 500 μl TBS, 20 min at room temperature; Superdex 75 10/300, fractions on SDS-PAGE; both purified. (SEC sorts molecules by how far they enter the pores of the column.)

Results are given in words; binding and its absence hold for the method and conditions named. Tags and fused reporters may be left off the sequences shown.

B1: VHH_(ISG15-B)-HA-His (VHH)
VHH: QVQLVETGGGLVEPGGSLRLSCTVSGINFSSQFMAWFRQGPGKQREWVAIDAGEENVGYLDLVEGRFTISRDTARNTLYLQMNSLKPEDTAVYYCNIFPVLPDSRWGQGTQVTVSS
On to B1, for which the binding entry in assay [1] is “no binding”; in assay [2] it was “no binding (tested: 20 μM)”.
